Here are results for one molecule from paper PMC5102573 (Clinical Pharmacology and Therapeutics, 2016).

Like-named read-outs stand apart in the source and are kept apart here.

For series [1] the following is noted: previous report; cited from earlier work.
The conditions of series [2]: for Cmax lower (decrease) in cocktail than drug alone: geometric mean.

Consider `NS(=O)(=O)c1cc(C(=O)O)c(NCc2ccco2)cc1Cl` [Furosemide, furosemide], for which the “decrease in AUC following concomitant administration of metformin” value in series [1] is listed as 12%. The “decrease in Cmax following concomitant administration of metformin” value in series [1] is given as 31%. Moreover, the “Cmax lower (decrease) in cocktail than drug alone” value was 19% in series [2] (cocktail T1 vs alone); 19.1% in series [2] (cocktail T1 vs alone, listed as furosemide); 21.4% in series [2] (cocktail T2 vs alone). Besides, in series [2] (cocktail T3 (20 mg furosemide dose) vs furosemide alone (5 mg dose)), the “Cmax, times higher in cocktail T3 than alone” value came to 3.1 times.
